The values that follow come from publication PMC11150451.

No constants are given. Whether binding was seen depends on the method and setting. In cells and extracts the contact can be indirect.

The target in this assay is FLAG-tagged GafZ (C. crescentus). Put plainly: co-IP; FLAG-tagged GafZ as bait on anti-FLAG magnetic beads (μMACS kit); stationary-phase C. crescentus lysate in 50 mM Tris-HCl pH 8, 150 mM NaCl, 1% Triton X-100, with Benzonase; immunoblots with anti-VSVG, anti-ParB, anti-FLAG. On the technique in general: A western blot detects proteins with antibodies after separation by electrophoresis.

B1: ParB (protein, UniProt B8GW30 1-304)
chain: MESVVVGEPGMSEGRRGLGRGLSALLGEVDAAPAQAPGEQLGGSREAPIEILQRNPDQPRRTFREEDLEDLSNSIREKGVLQPILVRPSPDTAGEYQIVAGERRWRAAQRAGLKTVPIMVRELDDLAVLEIGIIENVQRADLNVLEEALSYKVLMEKFERTQENIAQTIGKSRSHVANTMRLLALPDEVQSYLVSGELTAGHARAIAAAADPVALAKQIIEGGLSVRETEALARKAPNLSAGKSKGGRPPRVKDTDTQALESDLSSVLGLDVSIDHRGSTGTLTITYATLEQLDDLCNRLTRGI
For the molecule B1, the binding entry is “no binding”.
